Results are given in words; binding and its absence hold for the method and conditions named.
T1: T25-AtcC (Shewanella oneidensis MR-1) (UniProt Q8EFW9)
T1 sequence: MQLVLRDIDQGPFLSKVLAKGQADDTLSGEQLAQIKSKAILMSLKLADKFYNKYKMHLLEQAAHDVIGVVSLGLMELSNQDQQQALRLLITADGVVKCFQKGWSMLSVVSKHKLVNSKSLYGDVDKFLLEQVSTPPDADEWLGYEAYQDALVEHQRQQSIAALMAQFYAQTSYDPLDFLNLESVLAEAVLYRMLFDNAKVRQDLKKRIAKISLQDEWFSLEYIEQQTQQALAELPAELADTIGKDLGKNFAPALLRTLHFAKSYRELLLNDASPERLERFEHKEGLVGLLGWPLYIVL

B1: AtcJ-6His (Adaptation to cold protein J, SO_1850) (natural protein, Shewanella oneidensis MR-1, UniProt Q8EFW5 1-94, looked up)
chain: MINHFSVLGIKPSAKEDDIKKAYRRLSNKYHPDKLLGASDEEKEQASQQLERVKKAYEVLSDPKLRNAFIRDFNNVIVTDPNSAMRELWDQFYP
notes: AtcJ (SO_1850) of Shewanella oneidensis MR-1, a 94-amino acid J-domain protein (J-domain 1-73 and a C-terminal extension of 21 amino acids); also called wild-type AtcJ; AtcJ-WT

Assays:
[1] = molecular target: T1, T25-AtcC (Shewanella oneidensis MR-1); experiment: two-hybrid; bacterial two-hybrid (T18 and T25 domains of B. pertussis adenylate cyclase) in E. coli Bth101, overnight culture at 28 °C with 1 mM IPTG, β-galactosidase activity
[2] = molecular target: T25 domain alone (Bordetella pertussis); experiment: as above

| Molecule | binding [1] | binding [2] |
| --- | --- | --- |
| T18 domain alone (Bordetella pertussis) (domain or fragment) | no binding |  |
| B1 |  | no binding |

From PMC6715715 (Communications Biology, 2019)
